Measured values published in patent US11220671B2, “Methods for the maturation of cardiomyocytes on amniotic fluid cell-derived ECM, cellular constructs, and uses for cardiotoxicity and proarrhythmic screening of drug compounds” (STEMBIOSYS, INC., priority 2019, dated 2022).

Test: Composition of amniotic fluid cell-derived ECM by mass spectrometry (total spectra count)
[1] = amniotic fluid cell-derived ECM Matrix A, mass spectrometry, label = protein component
[2] = amniotic fluid cell-derived ECM Matrix B, mass spectrometry, label = protein component
[3] = amniotic fluid cell-derived ECM Matrix C, mass spectrometry, label = protein component
[4] = amniotic fluid cell-derived ECM Matrix D, mass spectrometry, label = protein component

Row | Molecule | Total Spectra Count Matrix A [1] | Total Spectra Count Matrix B [2] | Total Spectra Count Matrix C [3] | Total Spectra Count Matrix D [4] | Total Spectra Count Matrix A (protein component found by mass spectrometry in amniotic fluid cell-derived ECM Matrix A (Example 1)) | Total Spectra Count Matrix B (protein component found by mass spectrometry in amniotic fluid cell-derived ECM Matrix B (Example 1)) | Total Spectra Count Matrix C (protein component found by mass spectrometry in amniotic fluid cell-derived ECM Matrix C (Example 1)) | Total Spectra Count Matrix D (protein component found by mass spectrometry in amniotic fluid cell-derived ECM Matrix D (Example 1))
1 | Ladinin-1 (protein, UniProt O00515 1-517, looked up) Ladinin-1: MAVSRKDWSALSSLARQRTLEDEEEQERERRRRHRNLSSTTDDEAPRLSQNGDRQASASERLPSVEEAEVPKPLPPASKDEDEDIQSILRTRQERRQRRQVVEAAQAPIQERLEAEEGRNSLSPVQATQKPLVSKKELEIPPRRRLSREQRGPWALEEESLVGREPEERKKGVPEKSPVLEKSSMPKKTAPEKSLVSDKTSISEKVLASEKTSLSEKIAVSEKRNSSEKKSVLEKTSVSEKSLAPGMALGSGRRLVSEKASIFEKALASEKSPTADAKPAPKRATASEQPLAQEPPASGGSPATTKEQRGRALPGKNLPSLAKQGASDPPTVASRLPPVTLQVKIPSKEEEADMSSPTQRTYSSSLKRSSPRTISFRMKPKKENSETTLTRSASMKLPDNTVKLGEKLERYHTAIRRSESVKSRGLPCTELFVAPVGVASKRHLFEKELAGQSRAEPASSRKENLRLSGVVTSRLNLWISRTQESGDQDPQEAQKASSATERTQWGQKSDSSLDAEV | 0 | 0 | 0 | 6 | – | – | – | –
2 | Keratin, type II cytoskeletal 1 (protein, UniProt P04264 2-644, looked up) Keratin, type II cytoskeletal …: SRQFSSRSGYRSGGGFSSGSAGIINYQRRTTSSSTRRSGGGGGRFSSCGGGGGSFGAGGGFGSRSLVNLGGSKSISISVARGGGRGSGFGGGYGGGGFGGGGFGGGGFGGGGIGGGGFGGFGSGGGGFGGGGFGGGGYGGGYGPVCPPGGIQEVTINQSLLQPLNVEIDPEIQKVKSREREQIKSLNNQFASFIDKVRFLEQQNQVLQTKWELLQQVDTSTRTHNLEPYFESFINNLRRRVDQLKSDQSRLDSELKNMQDMVEDYRNKYEDEINKRTNAENEFVTIKKDVDGAYMTKVDLQAKLDNLQQEIDFLTALYQAELSQMQTQISETNVILSMDNNRSLDLDSIIAEVKAQYEDIAQKSKAEAESLYQSKYEELQITAGRHGDSVRNSKIEISELNRVIQRLRSEIDNVKKQISNLQQSISDAEQRGENALKDAKNKLNDLEDALQQAKEDLARLLRDYQELMNTKLALDLEIATYRTLLEGEESRMSGECAPNVSVSVSTSHTTISGGGSRGGGGGGYGSGGSSYGSGGGSYGSGGGGGGGRGSYGSGGSSYGSGGGSYGSGGGGGGHGSYGSGSSSGGYRGGSGGGGGGSSGGRGSGGGSSGGSIGGRGSSSGGVKSSGGSSSVKFVSTTYSGVTR | 0 | 497 | 0 | 0 | – | – | – | –
3 | Kinesin-like protein KIFC2 (protein, UniProt Q96AC6 1-838, looked up) Kinesin-like protein KIFC2: MYAFYSLLIYIFYSLFRRDGGAAAAAEPGDPAQRARKPRGRRRPDLPAPELWTELTGLAASSEPEDGSEGAAEGRAAAVSLEEALLRLAEFLSVQLGAEESCGGPADLGQSGEVPSLLTVTSQLLALLAWLRSPRGRQALLQGTQPAPRVRPPSPDGSTSQEESPSHFTAVPGEPLGDETQGQQPLQLEEDQRAWQRLEQLILGQLEELKQQLEQQEEELGRLRLGVGATDSEKRVQHLTLENEALKQSLSLMRDLLLHWGPGPPIRAPQEEAEALLELQGRLQEAQDTTEALRAQLGVQEVQLQGLQGALQQLQQETEQNCRRELQQMHGQLAGLRARMASLRQGCGDLRGLVSTFTQSCQGSLSEARGQVSWALGALSSGGPGTQLPEGQQGPPAGCPGRLPELKGNIRVLCRLRPGTSSSLVSVEPGPGGTVTTCYRGRHRRFRLDWVFPPDASQEEVFRELEPAVLSCLRGYSVCIFTYGQTGTGKTYSMEGPPEDPGIVPRALQSLFREMGAGRQHRVTLSMVEIYNEAVRDLLAPGPPERLAVRQGPEGQGGIQVAGLTHWDVPNLETLHQMLKLGRSNRATAATAMNQRSSRSHALVTLTLRAASPPRAPGTAGTLHLVDLAGSERARKAGAAGPPRGDPDGARRLREAQTINRSLLALGGVMAALRAHRPHVPFRDSQLTRLLQPALGPGTTAVLLLQVGAGAGQVCACRSPPTRARPPAPLARRSPRGRRISGRQSAPSSSPTEWVKWSWGQPGAAGSRAPPGRLLPSAPTLRSPGPPAPLRRPLAVLHAPVPTTARARLSRPQRACPSSPGSRPCPWGLRPGLCWQRR | 0 | 2 | 0 | 1 | – | – | – | –
4 | T-complex protein 1 subunit theta (protein, UniProt P50990 2-548, looked up) T-complex protein 1 subunit …: ALHVPKAPGFAQMLKEGAKHFSGLEEAVYRNIQACKELAQTTRTAYGPNGMNKMVINHLEKLFVTNDAATILRELEVQHPAAKMIVMASHMQEQEVGDGTNFVLVFAGALLELAEELLRIGLSVSEVIEGYEIACRKAHEILPNLVCCSAKNLRDIDEVSSLLRTSIMSKQYGNEVFLAKLIAQACVSIFPDSGHFNVDNIRVCKILGSGISSSSVLHGMVFKKETEGDVTSVKDAKIAVYSCPFDGMITETKGTVLIKTAEELMNFSKGEENLMDAQVKAIADTGANVVVTGGKVADMALHYANKYNIMLVRLNSKWDLRRLCKTVGATALPRLTPPVLEEMGHCDSVYLSEVGDTQVVVFKHEKEDGAISTIVLRGSTDNLMDDIERAVDDGVNTFKVLTRDKRLVPGGGATEIELAKQITSYGETCPGLEQYAIKKFAEAFEAIPRALAENSGVKANEVISKLYAVHQEGNKNVGLDIEAEVPAVKDMLEAGILDTYLGKYWAIKLATNAAVTVLRVDQIIMAKPAGGPKPPSGKKDWDDDQND | – | – | – | – | 25 | 100 | 21 | 30
5 | Keratin, type II cuticular Hb5 (protein, UniProt P78386 1-507, looked up) Keratin, type II cuticular Hb5: MSCRSYRISSGCGVTRNFSSCSAVAPKTGNRCCISAAPYRGVSCYRGLTGFGSRSLCNLGSCGPRIAVGGFRAGSCGRSFGYRSGGVCGPSPPCITTVSVNESLLTPLNLEIDPNAQCVKQEEKEQIKSLNSRFAAFIDKVRFLEQQNKLLETKWQFYQNQRCCESNLEPLFSGYIETLRREAECVEADSGRLASELNHVQEVLEGYKKKYEEEVALRATAENEFVVLKKDVDCAYLRKSDLEANVEALVEESSFLRRLYEEEIRVLQAHISDTSVIVKMDNSRDLNMDCIIAEIKAQYDDVASRSRAEAESWYRSKCEEMKATVIRHGETLRRTKEEINELNRMIQRLTAEIENAKCQRAKLEAAVAEAEQQGEAALSDARCKLAELEGALQKAKQDMACLLKEYQEVMNSKLGLDIEIATYRRLLEGEEHRLCEGVGSVNVCVSSSRGGVSCGGLSYSTTPGRQITSGPSAIGGSITVVAPDSCAPCQPRSSSFSCGSSRSVRFA | 0 | 3 | 0 | 0 | – | – | – | –
6 | Keratin, type I cytoskeletal 19 (protein, UniProt P08727 1-400, looked up) Keratin, type I cytoskeletal …: MTSYSYRQSSATSSFGGLGGGSVRFGPGVAFRAPSIHGGSGGRGVSVSSARFVSSSSSGAYGGGYGGVLTASDGLLAGNEKLTMQNLNDRLASYLDKVRALEAANGELEVKIRDWYQKQGPGPSRDYSHYYTTIQDLRDKILGATIENSRIVLQIDNARLAADDFRTKFETEQALRMSVEADINGLRRVLDELTLARTDLEMQIEGLKEELAYLKKNHEEEISTLRGQVGGQVSVEVDSAPGTDLAKILSDMRSQYEVMAEQNRKDAEAWFTSRTEELNREVAGHTEQLQMSRSEVTDLRRTLQGLEIELQSQLSMKAALEDTLAETEARFGAQLAHIQALISGIEAQLGDVRADSERQNQEYQRLMDIKSRLEQEIATYRSLLEGQEDHYNNLSASKVL | 0 | 753 | 0 | 0 | – | – | – | –
7 | Keratin, type II cytoskeletal 7 (protein, UniProt P08729 2-469, looked up) Keratin, type II cytoskeletal …: SIHFSSPVFTSRSAAFSGRGAQVRLSSARPGGLGSSSLYGLGASRPRVAVRSAYGGPVGAGIREVTINQSLLAPLRLDADPSLQRVRQEESEQIKTLNNKFASFIDKVRFLEQQNKLLETKWTLLQEQKSAKSSRLPDIFEAQIAGLRGQLEALQVDGGRLEAELRSMQDVVEDFKNKYEDEINHRTAAENEFVVLKKDVDAAYMSKVELEAKVDALNDEINFLRTLNETELTELQSQISDTSVVLSMDNSRSLDLDGIIAEVKAQYEEMAKCSRAEAEAWYQTKFETLQAQAGKHGDDLRNTRNEISEMNRAIQRLQAEIDNIKNQRAKLEAAIAEAEERGELALKDARAKQEELEAALQRGKQDMARQLREYQELMSVKLALDIEIATYRKLLEGEESRLAGDGVGAVNISVMNSTGGSSSGGGIGLTLGGTMGSNALSFSSSAGPGLLKAYSIRTASASRRSARD | 0 | 0 | 0 | 135 | – | – | – | –
